# Reference: paper PMC5529009
# Chains of the proteins cited; added tags and fusions are not shown.
# UniProt Q9C9K7: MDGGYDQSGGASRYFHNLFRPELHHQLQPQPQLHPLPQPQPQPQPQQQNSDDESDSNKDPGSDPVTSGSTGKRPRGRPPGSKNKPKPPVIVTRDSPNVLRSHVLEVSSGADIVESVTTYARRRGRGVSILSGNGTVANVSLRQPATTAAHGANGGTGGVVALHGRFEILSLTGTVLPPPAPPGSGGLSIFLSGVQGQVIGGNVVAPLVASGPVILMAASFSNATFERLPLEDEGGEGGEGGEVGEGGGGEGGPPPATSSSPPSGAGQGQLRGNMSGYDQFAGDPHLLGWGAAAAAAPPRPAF
# UniProt Q9S7C9: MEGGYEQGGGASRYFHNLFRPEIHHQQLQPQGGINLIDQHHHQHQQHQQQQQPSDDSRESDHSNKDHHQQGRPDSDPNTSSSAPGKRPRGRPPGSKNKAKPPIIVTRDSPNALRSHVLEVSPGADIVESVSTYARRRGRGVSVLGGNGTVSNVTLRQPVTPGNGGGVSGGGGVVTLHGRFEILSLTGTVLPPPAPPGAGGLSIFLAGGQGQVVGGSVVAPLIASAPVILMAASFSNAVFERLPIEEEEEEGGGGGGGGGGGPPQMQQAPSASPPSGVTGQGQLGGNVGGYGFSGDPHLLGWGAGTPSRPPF
# These are yes or no findings as the source states them, for the method shown. For some of these results: Binding seen in cells or lysates may run through a third protein. Some entries that bind do so weakly or less than the wild type. Sequences can lack the tags named with a protein.
# B1: ACTIN-RELATED PROTEIN 4 (ARP4), GAL4 fusion for yeast two-hybrid (protein, UniProt Q84M92 1-441)
# chain: MYGGDEVSAIVVDLGSHTCKAGYAGEDAPKAVFPSVIGAVDGVEAMDVDVDSTKTNSNSEDSKTESEKEKSKRKLYVGSQAMSYRRDHMEVLSPIKDGIVSDWDLVDNIWEHAFKSCLMIDPTEHPMLLAEPPLNTQQQREKAAELMFEKYKVPALFMAKNPVLTSFATGRATSLVVDCGGGSTTISPVHDGYVLQKAVVSSPLGGEFLTDCLLKSLESKGIKIRPRYSFKRKEVRAGEFQVEDVDIPDTTESYKLFCQRMIVGDIKDSICRVPDTPYDDKSYSNIPTTSYELPDGQTLEIGADRFKVPDVMFNPSIVQTIPGMEKYAEMIPSVRGLPHMVMESINKCDVDIRRELYSSILLAGGTSSMQQLKERLEKDLIEESPHSARVKVLASGNTTERRFSVWIGGSILASLGSFQQMWFSKSEYEEHGASYIQRKCP
# B2: ARP4-cYFP (protein, UniProt Q84M92 1-441)
# chain: B1 chain
# Experiments:
# [1] = molecular target: SUPPRESSOR OF PHYTOCHROME B-4 #3 (SOB3)/AHL29, GAL4 fusion for yeast two-hybrid (Arabidopsis thaliana) (UniProt Q9C9K7); experiment: two-hybrid; screen of SOB3 against a prey library composed only of approximately 100 cDNAs encoding chromatin remodelers and chromatin modifiers in Arabidopsis
# [2] = molecular target: ESCAROLA (ESC)/AHL27, GAL4 fusion for yeast two-hybrid (Arabidopsis thaliana) (UniProt Q9S7C9); experiment: two-hybrid; BD Matchmaker system; pGBKT7 (GAL4 BD) and pGADT7 (GAL4 AD) fusions co-transformed into yeast strain pJG69-4a; growth on selective medium (-LWHA) or b-Gal activity with ONPG
# [3] = molecular target: SUPPRESSOR OF PHYTOCHROME B-4 #3 (SOB3)/AHL29, GAL4 fusion for yeast two-hybrid (Arabidopsis thaliana) (UniProt Q9C9K7); experiment: as above
# [4] = molecular target: SOB3-nYFP (Arabidopsis thaliana) (UniProt Q9C9K7); experiment: split reporter; BiFC; nYFP and cYFP fusions transiently coexpressed in Arabidopsis protoplasts; YFP fluorescence by confocal microscopy
Binder,binding [1],binding [2],binding [3],binding [4]
B1,binds,no binding,binds,
B2,,,,binds
